# This is one part of the list.
# Target: T1, OsSMF1 (Oryza sativa, UniProt Q6ZLB0 1-436)
# T1 sequence: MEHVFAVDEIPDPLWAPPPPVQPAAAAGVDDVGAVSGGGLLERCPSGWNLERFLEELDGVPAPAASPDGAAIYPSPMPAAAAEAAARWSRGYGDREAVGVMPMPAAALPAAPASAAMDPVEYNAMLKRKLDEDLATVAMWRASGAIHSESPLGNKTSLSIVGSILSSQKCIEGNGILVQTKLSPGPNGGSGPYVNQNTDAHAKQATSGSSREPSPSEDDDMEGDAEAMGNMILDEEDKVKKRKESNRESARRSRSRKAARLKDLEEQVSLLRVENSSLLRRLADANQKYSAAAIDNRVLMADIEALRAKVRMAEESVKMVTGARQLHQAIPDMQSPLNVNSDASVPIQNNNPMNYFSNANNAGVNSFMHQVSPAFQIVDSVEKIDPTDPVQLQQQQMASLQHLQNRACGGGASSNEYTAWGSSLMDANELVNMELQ
# Experiment: protein-binding microarray (RPBM); PBS, 2% BSA, 51.3 ng/ul salmon testes DNA, 50 uM zinc acetate, 200 nM TF, 25 C, 1 h; high values mean tight binding
# Settings: protein: recombinant; tags: N-terminal polyhistidine and DsRed monomer fusion (pET32a); chain copies: 2; label: CyDye5-dUTP incorporated in the synthesized complementary strand; 3' TTTTT single-stranded linker to array surface; dsDNA, one strand shown
# Summary of the method: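 Binding signal here means per-feature fluorescence intensity in arbitrary units. The values were read on an Axon 4000B scanner after a custom Agilent array, double-stranded by primer extension with Cy5-dUTP, was incubated with 200 nM protein at 25 °C for 1 h in PBS with 2% BSA, salmon testes DNA and 50 µM zinc acetate, then washed. The proteins were transcription factors with an N-terminal polyhistidine tag and DsRed, expressed in E. coli BL21-CodonPlus and purified on Ni–NTA.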
row,Sequence,binding signal
1,AGGAAACGTGTGTTCCGTTCGCCGCGTCCGGAGCCCGCGGCGGAGTCACCTAGTGCAG,3330 fluorescence intensity (a.u.)
2,AACACAACCCAACCAATCGTTTACCGCCACGTGCACGCCACGGAGTCACCTAGTGCAG,4920 fluorescence intensity (a.u.)
3,GGTTCTTAGTTTGCTGCGTTTATAGCAAACGTGTACACGGCGGAGTCACCTAGTGCAG,4430 fluorescence intensity (a.u.)
4,AGTAGTTTGGTGTATTAGTGATGGTTAACTGCTCTGATCTCGGAGTCACCTAGTGCAG,3260 fluorescence intensity (a.u.)
5,CAATCATAATATATTAGCTGGCAGGTTCAAATGGGATTTTCGGAGTCACCTAGTGCAG,3160 fluorescence intensity (a.u.)
6,TATTGGAACTTTAGTGACCGTTGCGTAGACTCATATAAGACGGAGTCACCTAGTGCAG,3470 fluorescence intensity (a.u.)
7,GCATTGGCAGGAATAATTTGGTACTGTAGTATGGTCCATCCGGAGTCACCTAGTGCAG,22500 fluorescence intensity (a.u.)
8,GCCGCGCGGCGGAGGCGGAAGCGAGCGTCACGTTGCCCACCGGAGTCACCTAGTGCAG,3510 fluorescence intensity (a.u.)
9,TCCATCCCCGCGTGGATTTGACCGGGCGGCGTGGATTCGGCGGAGTCACCTAGTGCAG,3320 fluorescence intensity (a.u.)
10,CATGTTCGAAGAGACCAGCCCACATATTAGTTACGGCCTACGGAGTCACCTAGTGCAG,20400 fluorescence intensity (a.u.)
11,CATAATTTTCGTGTTTGTCCAACATGACATCATTTTCTTGCGGAGTCACCTAGTGCAG,3870 fluorescence intensity (a.u.)
12,GAGTAGTGTACACGCCGGCACGCGCAGCTTGCATTGCAGCCGGAGTCACCTAGTGCAG,3350 fluorescence intensity (a.u.)
13,CAGCAATCTCGGGCGGCGGCGGCGGCGAGGAGGAGGAAGTCGGAGTCACCTAGTGCAG,34000 fluorescence intensity (a.u.)
14,ATACTATTAAACTTGCTCTTACACGTGTCAGGCGGGCCCACGGAGTCACCTAGTGCAG,19300 fluorescence intensity (a.u.)
15,CCGCTCTTGGGCCTCACCACGCGGCACCACGGGACGGAAGCGGAGTCACCTAGTGCAG,3860 fluorescence intensity (a.u.)
16,CATTTATGATCAATACTCGACAGCTCATCTGTACACAAAGCGGAGTCACCTAGTGCAG,4950 fluorescence intensity (a.u.)
17,CGCCGCCGGCCGCGCCGCCGCTGCCGCCGTCGCCCCGCGCCGGAGTCACCTAGTGCAG,3450 fluorescence intensity (a.u.)
18,GTGATGGTGGTGTGGATCGGTATGGTGTCGCCATCCATGACGGAGTCACCTAGTGCAG,3550 fluorescence intensity (a.u.)
19,GCCGAGGAAACCCTAGCGCCGCATCCGCCTCCTATATATTCGGAGTCACCTAGTGCAG,3540 fluorescence intensity (a.u.)
20,TACATATAATTGAGGGAGCCAACGTGGACTTATTCCTTTTCGGAGTCACCTAGTGCAG,4090 fluorescence intensity (a.u.)
21,TAAAGTCTTAGCTTGAAATTACTCTTGCCATGTGTCATCGCGGAGTCACCTAGTGCAG,5290 fluorescence intensity (a.u.)

# Given bar-delimited: part of the list above
row | Sequence | binding signal
9 | TCCATCCCCGCGTGGATTTGACCGGGCGGCGTGGATTCGGCGGAGTCACCTAGTGCAG | 3320 fluorescence intensity (a.u.)
18 | GTGATGGTGGTGTGGATCGGTATGGTGTCGCCATCCATGACGGAGTCACCTAGTGCAG | 3550 fluorescence intensity (a.u.)

# (cont.)

row,Sequence,binding signal
1,GCTAACTCGTCACGTCATTAGAAACCGTACACAATATTGTCGGAGTCACCTAGTGCAG,5240 fluorescence intensity (a.u.)
2,TGGAATACTTATAAACCCTGCATGACTCACTTGATTGGTACGGAGTCACCTAGTGCAG,5880 fluorescence intensity (a.u.)
3,ATATGGGACCTGCTTTAGTTTTGTTGCCACGTAAACGCTTCGGAGTCACCTAGTGCAG,12100 fluorescence intensity (a.u.)
4,GACGAAGCTCGACCTGTACTGCGCGGCCGTGGCTAAATCGCGGAGTCACCTAGTGCAG,3180 fluorescence intensity (a.u.)
5,ATCCGCGCCTCACGCCACGTCAGCGATTCGCGTCTCCTCTCGGAGTCACCTAGTGCAG,14900 fluorescence intensity (a.u.)
6,GCGATTCAAAGGAGCCCAAAAGAGTTAAAAGGAGTGTCAGCGGAGTCACCTAGTGCAG,4170 fluorescence intensity (a.u.)
7,TTAGTATTTAAAATTTAAAAGCAAAGTCATTCTCCTTCTACGGAGTCACCTAGTGCAG,8610 fluorescence intensity (a.u.)
8,CTCTACGTGTCAGACTCGTATCTGGGCCCACCTGACAGCGCGGAGTCACCTAGTGCAG,4090 fluorescence intensity (a.u.)
9,TATACTCTATAATAATACAAATGTGATGCTAGTATATATTCGGAGTCACCTAGTGCAG,22000 fluorescence intensity (a.u.)
10,GTCAAGCATTCGCCCGTGTTTGCTCGCTCCGCTCCGTCACCGGAGTCACCTAGTGCAG,4120 fluorescence intensity (a.u.)
11,ATTCTGTCCCCGATCCCGTCACGTCTCCTGGAAACACCCCCGGAGTCACCTAGTGCAG,3430 fluorescence intensity (a.u.)
12,ACTTTGGATCTAAACACAGCCTAACACGTGTACTACGAGACGGAGTCACCTAGTGCAG,4830 fluorescence intensity (a.u.)
13,TATATAAATATGTGCAGGTGACTAGGCTCAAATGTGGCGGCGGAGTCACCTAGTGCAG,6340 fluorescence intensity (a.u.)
14,TACTCTAAAATTTACCACATCAGCAAGAGCCATTATTTAACGGAGTCACCTAGTGCAG,4050 fluorescence intensity (a.u.)
15,TATCATGTGTTCGTATGTCGTCATCTGGCATGTCTTAGGTCGGAGTCACCTAGTGCAG,4980 fluorescence intensity (a.u.)
16,TGGACGGACGGAGGGACCCACCCATCCACGTCGCCGCTATCGGAGTCACCTAGTGCAG,5100 fluorescence intensity (a.u.)
17,TTGTCGGCCTCAAGTAAAAGGACGTGCAAGGGAGTCATTGCGGAGTCACCTAGTGCAG,3680 fluorescence intensity (a.u.)
18,GTCCACACACGTTGACGAGGCAACGAGATACGGCACCAATCGGAGTCACCTAGTGCAG,4370 fluorescence intensity (a.u.)
19,GGTTGCTGAGCACTTGTGCTGCGCGGGCTACCTACCTGTTCGGAGTCACCTAGTGCAG,27200 fluorescence intensity (a.u.)
20,CAGAGCGAGCGGTTGGGTAAAATCAGGCGCGCGTCACCGGCGGAGTCACCTAGTGCAG,5160 fluorescence intensity (a.u.)
21,TTGTTCCAAGAAAGAAAAGGGAAATTTTCTTTAGCCCACCCGGAGTCACCTAGTGCAG,3180 fluorescence intensity (a.u.)

# Source: article PMC7819943, “Rice protein-binding microarrays: a tool to detect cis-acting elements near promoter regions in rice”
